Measurements as given in paper PMC10593818.
Results are given in words; binding and its absence hold for the method and conditions named. Binding seen in cells or lysates may run through a third protein. Some results given as binding are weak or reduced against the parent protein; the word gives no strength. For part of these data: Sequences can lack the tags named with a protein. Values belong to the molecule of their own block, whether it stands above or below them.

Sequences of proteins named here, by UniProt entry; tags and fusion partners are left off. A change or cut given only in a name is not applied to a line headed by its entry. Residues count along the entry.
UniProt Q9QUN7, residues 25-784: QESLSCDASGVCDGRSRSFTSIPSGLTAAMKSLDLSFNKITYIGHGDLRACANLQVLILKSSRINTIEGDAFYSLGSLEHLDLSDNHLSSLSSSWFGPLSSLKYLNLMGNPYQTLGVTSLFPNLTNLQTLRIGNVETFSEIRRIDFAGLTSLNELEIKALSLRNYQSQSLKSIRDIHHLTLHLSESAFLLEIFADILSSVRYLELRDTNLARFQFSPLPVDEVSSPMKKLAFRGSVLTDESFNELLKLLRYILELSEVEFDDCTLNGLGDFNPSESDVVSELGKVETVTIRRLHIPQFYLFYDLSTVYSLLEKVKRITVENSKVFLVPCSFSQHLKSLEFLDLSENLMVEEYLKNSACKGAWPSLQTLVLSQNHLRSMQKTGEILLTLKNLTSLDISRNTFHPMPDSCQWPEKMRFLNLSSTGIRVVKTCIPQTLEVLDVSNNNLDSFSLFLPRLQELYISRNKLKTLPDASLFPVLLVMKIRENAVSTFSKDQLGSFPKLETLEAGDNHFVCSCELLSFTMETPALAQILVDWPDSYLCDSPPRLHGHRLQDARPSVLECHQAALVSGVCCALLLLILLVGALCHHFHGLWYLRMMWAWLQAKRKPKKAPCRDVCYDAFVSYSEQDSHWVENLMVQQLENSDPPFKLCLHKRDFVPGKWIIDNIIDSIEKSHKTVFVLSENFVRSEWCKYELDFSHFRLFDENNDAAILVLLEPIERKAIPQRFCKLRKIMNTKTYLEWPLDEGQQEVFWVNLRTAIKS
UniProt O60603: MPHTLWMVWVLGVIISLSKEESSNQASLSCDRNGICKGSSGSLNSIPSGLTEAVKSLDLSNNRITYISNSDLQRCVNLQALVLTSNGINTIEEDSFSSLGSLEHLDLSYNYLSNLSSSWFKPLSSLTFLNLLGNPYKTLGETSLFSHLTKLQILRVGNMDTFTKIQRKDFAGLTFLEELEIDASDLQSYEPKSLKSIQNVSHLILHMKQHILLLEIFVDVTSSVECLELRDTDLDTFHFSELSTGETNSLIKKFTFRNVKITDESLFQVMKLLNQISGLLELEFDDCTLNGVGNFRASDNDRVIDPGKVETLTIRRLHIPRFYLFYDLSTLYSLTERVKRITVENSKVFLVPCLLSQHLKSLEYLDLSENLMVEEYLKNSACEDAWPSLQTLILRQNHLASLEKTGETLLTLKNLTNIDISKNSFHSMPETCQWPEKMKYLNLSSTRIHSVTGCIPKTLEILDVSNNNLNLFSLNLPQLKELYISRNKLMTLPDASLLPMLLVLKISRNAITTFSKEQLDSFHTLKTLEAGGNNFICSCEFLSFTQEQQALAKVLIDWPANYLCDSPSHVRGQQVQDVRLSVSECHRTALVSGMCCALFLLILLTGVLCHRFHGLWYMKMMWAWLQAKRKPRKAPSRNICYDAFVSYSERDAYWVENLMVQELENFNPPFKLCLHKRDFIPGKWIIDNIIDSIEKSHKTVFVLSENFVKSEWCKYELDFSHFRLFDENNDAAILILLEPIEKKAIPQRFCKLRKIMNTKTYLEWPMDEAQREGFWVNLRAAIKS

Columns and labels:
[1] = biological target: T1, human CLEC2D-Flag (human) (UniProt Q9UHP7); assay: co-IP; tagged proteins co-expressed in HEK293T cells, without or with C. albicans yeast (MOI = 5); lysed in Western and IP buffer; antibody-conjugated magnetic beads overnight at 4 °C; immunoblot
T1 sequence: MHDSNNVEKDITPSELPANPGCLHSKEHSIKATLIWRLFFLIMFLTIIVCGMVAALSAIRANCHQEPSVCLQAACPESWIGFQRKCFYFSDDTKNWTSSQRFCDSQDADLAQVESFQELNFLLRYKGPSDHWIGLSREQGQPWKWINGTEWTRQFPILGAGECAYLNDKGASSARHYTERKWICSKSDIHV

[2] = biological target: T2, YFP^N-CLEC2D / YFP^C-CLEC2D (human) (UniProt Q9UHP7); assay: split reporter; BiFC with HA-tagged CLEC2D or Myc-tagged TLR2 co-expressed as competitor in 293T cells; frequency of YFP+ cells
T2 sequence: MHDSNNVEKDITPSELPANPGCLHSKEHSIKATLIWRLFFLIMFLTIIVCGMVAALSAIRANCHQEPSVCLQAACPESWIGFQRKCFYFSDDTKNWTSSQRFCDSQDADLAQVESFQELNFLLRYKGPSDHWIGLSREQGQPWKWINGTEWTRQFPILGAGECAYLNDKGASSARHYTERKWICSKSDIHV

[3] = biological target: T2, YFP^N-CLEC2D / YFP^C-CLEC2D (human); assay: split reporter; BiFC: YFP^N and YFP^C fusions co-transfected into HEK293 cells; YFP+ cells by flow cytometry or confocal microscopy
[4] = biological target: T3, endogenous CLEC2D of human PBMCs (human (endogenous in PBMCs)) (UniProt Q9UHP7); assay: FRET or BRET; endogenous proteins on fixed human PBMCs after 60 min curdlan; Cy3-anti-CLEC2D (donor) and Cy5-anti-TLR2 (acceptor) antibodies; acceptor photobleaching, confocal microscope
T3 sequence: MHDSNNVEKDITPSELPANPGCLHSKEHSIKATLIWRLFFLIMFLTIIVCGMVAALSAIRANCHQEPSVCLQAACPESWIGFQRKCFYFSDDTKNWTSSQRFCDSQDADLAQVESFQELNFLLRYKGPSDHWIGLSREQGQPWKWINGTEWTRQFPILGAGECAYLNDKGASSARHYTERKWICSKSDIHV

[5] = biological target: endogenous TLR2 of mouse BMDCs (mouse (endogenous in BMDCs)) (UniProt Q9QUN7); assay: co-IP; endogenous proteins of mouse BMDCs stimulated with curdlan or heat-killed C. albicans yeast (MOI = 5); lysate incubated with anti-TLR2 antibody, protein A/G magnetic beads; immunoblot
human TLR2-Myc (human) = human TLR2-Myc (human) (UniProt O60603); assay: co-IP; tagged proteins co-expressed in HEK293T cells, without or with C. albicans yeast (MOI = 5); lysed in Western and IP buffer; antibody-conjugated magnetic beads overnight at 4 °C; immunoblot
YFP^C-TLR2 (human) = YFP^C-TLR2 (human) (UniProt O60603); assay: split reporter; BiFC with HA-tagged CLEC2D or Myc-tagged TLR2 co-expressed as competitor in 293T cells; frequency of YFP+ cells

binding [1]: binds | binding [2]: binds
Molecule: human TLR2-Myc (from UniProt O60603 21-784) (receptor)

binding [3]: binds | binding [2]: binds
Molecule: YFP^C-TLR2 (from UniProt O60603 21-784) (receptor)

binding [4]: binds
Molecule: endogenous TLR2 of human PBMCs (from UniProt O60603 21-784) (receptor)

B1: endogenous Clec2d of mouse BMDCs (receptor, UniProt Q91V08 1-207)
chain: MCVTKASLPMLSPTGSPQEVEVGKILQGKRHGTISPESCAKLYCYYGVIMVLTVAVIALSVALSATKTEQIPVNKTYAACPQNWIGVENKCFYFSEYPSNWTFAQAFCMAQEAQLARFDNQDELNFLMRYKANFDSWIGLHRESSEHPWKWTDNTEYNNTIPIRGEERFAYLNNNGISSTRIYSLRMWICSKLNSYSLHCQTPFFPS
binding [5]: binds

binding (human TLR2-Myc (human)): no binding | binding [1]: no binding
B2: human Dectin-1-HA (receptor, UniProt Q9BXN2 1-247)
chain: MEYHPDLENLDEDGYTQLHFDSQSNTRIAVVSEKGSCAASPPWRLIAVILGILCLVILVIAVVLGTMAIWRSNSGSNTLENGYFLSRNKENHSQPTQSSLEDSVTPTKAVKTTGVLSSPCPPNWIIYEKSCYLFSMSLNSWDGSKRQCWQLGSNLLKIDSSNELGFIVKQVSSQPDNSFWIGLSRPQTEVPWLWEDGSTFSSNLFQIRTTATQENPSPNCVWIHVSVIYDQLCSVPSYSICEKKFSM

binding (YFP^C-TLR2 (human)): binds | binding [2]: binds
B3: HA-tagged CLEC2D (receptor, UniProt Q9UHP7 1-191)
chain: MHDSNNVEKDITPSELPANPGCLHSKEHSIKATLIWRLFFLIMFLTIIVCGMVAALSAIRANCHQEPSVCLQAACPESWIGFQRKCFYFSDDTKNWTSSQRFCDSQDADLAQVESFQELNFLLRYKGPSDHWIGLSREQGQPWKWINGTEWTRQFPILGAGECAYLNDKGASSARHYTERKWICSKSDIHV

binding [3]: binds | binding [2]: binds
B4: YFP^N-CLEC2D / YFP^C-CLEC2D (receptor, UniProt Q9UHP7 1-191)
chain: MHDSNNVEKDITPSELPANPGCLHSKEHSIKATLIWRLFFLIMFLTIIVCGMVAALSAIRANCHQEPSVCLQAACPESWIGFQRKCFYFSDDTKNWTSSQRFCDSQDADLAQVESFQELNFLLRYKGPSDHWIGLSREQGQPWKWINGTEWTRQFPILGAGECAYLNDKGASSARHYTERKWICSKSDIHV
